# Source: PubChem BioAssay (EPA / NIEHS)
# Sequences of proteins named here, by UniProt entry; tags and fusion partners are left off. A change or cut given only in a name is not applied to a line headed by its entry.
# UniProt P43140: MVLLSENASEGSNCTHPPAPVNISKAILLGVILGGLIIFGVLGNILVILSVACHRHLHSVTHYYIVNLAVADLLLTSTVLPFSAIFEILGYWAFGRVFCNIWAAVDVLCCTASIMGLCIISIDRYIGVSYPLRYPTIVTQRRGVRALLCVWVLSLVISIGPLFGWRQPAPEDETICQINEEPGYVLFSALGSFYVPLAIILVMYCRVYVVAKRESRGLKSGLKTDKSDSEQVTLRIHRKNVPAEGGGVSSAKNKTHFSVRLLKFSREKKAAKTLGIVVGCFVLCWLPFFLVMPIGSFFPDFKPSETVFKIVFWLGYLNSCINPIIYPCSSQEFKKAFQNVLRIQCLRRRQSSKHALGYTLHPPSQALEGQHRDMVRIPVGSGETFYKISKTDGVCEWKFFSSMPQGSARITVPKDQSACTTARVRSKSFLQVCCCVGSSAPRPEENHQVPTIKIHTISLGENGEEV
# UniProt P16177, whole entry, looked up: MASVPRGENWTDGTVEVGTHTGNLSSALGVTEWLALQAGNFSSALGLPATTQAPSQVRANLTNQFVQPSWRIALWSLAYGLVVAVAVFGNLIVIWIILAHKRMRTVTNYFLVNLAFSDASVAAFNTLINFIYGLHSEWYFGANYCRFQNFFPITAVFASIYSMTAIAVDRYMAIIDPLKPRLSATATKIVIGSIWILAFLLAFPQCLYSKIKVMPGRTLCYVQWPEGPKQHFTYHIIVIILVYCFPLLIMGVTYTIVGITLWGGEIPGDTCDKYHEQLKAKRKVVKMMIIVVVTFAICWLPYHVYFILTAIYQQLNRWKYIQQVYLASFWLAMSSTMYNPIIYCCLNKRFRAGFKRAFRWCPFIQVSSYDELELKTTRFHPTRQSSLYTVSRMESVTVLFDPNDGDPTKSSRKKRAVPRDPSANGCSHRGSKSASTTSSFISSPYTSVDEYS
# UniProt P30560, whole entry, looked up: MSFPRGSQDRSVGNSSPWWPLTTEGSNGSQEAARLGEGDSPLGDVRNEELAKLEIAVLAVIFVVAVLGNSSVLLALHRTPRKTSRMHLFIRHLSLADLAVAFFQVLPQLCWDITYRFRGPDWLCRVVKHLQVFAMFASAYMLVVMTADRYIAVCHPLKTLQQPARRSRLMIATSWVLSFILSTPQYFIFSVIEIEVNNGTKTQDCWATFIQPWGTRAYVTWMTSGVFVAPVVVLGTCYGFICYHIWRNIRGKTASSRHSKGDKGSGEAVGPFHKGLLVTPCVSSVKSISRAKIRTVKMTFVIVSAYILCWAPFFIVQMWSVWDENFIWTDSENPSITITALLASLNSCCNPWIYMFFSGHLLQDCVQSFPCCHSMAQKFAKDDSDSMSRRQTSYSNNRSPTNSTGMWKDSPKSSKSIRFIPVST
# UniProt Q08E50: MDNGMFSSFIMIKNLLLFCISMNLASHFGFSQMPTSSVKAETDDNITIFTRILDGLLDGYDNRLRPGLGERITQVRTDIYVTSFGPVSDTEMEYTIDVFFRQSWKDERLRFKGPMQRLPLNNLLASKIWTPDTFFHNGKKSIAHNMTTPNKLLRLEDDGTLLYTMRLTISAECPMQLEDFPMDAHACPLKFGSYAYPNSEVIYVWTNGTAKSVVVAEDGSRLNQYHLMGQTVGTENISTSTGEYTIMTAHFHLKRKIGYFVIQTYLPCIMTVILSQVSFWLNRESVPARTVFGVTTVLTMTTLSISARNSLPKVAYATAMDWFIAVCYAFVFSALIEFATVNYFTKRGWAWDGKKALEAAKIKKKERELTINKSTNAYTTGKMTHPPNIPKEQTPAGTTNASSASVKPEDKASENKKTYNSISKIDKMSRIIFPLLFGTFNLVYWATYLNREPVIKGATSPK
# UniProt Q05941, whole entry, looked up: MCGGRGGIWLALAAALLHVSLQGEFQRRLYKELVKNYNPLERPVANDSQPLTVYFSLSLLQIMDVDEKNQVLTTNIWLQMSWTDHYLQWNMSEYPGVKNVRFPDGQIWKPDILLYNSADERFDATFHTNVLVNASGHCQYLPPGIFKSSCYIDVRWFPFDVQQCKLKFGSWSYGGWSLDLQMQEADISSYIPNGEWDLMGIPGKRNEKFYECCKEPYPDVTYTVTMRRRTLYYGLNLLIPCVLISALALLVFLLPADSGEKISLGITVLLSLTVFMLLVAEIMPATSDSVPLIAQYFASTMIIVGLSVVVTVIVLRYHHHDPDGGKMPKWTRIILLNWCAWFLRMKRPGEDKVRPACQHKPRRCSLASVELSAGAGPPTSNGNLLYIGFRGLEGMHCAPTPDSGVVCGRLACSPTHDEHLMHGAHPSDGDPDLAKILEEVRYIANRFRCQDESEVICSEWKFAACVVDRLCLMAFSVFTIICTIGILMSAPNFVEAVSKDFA
# UniProt P43378: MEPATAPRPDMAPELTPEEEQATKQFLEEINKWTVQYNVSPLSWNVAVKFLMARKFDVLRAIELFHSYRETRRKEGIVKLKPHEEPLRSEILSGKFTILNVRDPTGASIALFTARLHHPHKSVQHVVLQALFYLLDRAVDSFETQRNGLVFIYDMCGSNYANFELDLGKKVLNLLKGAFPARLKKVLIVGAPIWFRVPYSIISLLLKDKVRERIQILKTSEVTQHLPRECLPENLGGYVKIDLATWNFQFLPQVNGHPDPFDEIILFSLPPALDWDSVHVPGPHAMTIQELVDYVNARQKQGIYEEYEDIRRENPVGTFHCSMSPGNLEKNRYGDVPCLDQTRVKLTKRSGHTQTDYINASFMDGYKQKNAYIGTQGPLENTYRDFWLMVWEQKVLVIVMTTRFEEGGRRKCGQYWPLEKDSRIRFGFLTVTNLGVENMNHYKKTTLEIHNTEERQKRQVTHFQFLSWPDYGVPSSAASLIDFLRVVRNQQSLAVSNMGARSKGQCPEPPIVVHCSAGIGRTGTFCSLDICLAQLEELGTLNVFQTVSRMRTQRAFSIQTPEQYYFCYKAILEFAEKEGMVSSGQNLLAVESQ
# UniProt P06276, whole entry, looked up: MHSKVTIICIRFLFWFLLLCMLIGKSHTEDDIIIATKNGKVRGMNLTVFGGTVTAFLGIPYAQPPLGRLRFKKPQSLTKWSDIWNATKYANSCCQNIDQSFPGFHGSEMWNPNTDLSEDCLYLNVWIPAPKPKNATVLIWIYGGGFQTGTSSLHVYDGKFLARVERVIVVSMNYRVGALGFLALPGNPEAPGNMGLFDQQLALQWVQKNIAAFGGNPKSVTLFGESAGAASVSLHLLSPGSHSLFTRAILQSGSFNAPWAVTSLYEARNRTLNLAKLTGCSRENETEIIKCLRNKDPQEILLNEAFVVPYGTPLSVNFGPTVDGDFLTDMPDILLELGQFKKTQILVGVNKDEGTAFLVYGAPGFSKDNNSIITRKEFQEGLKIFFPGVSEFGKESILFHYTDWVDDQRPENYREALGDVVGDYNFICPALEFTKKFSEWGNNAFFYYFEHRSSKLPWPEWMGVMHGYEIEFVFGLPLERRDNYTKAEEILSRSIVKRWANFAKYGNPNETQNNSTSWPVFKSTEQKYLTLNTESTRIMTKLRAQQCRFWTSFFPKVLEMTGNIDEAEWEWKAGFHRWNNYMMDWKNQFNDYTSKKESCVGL
# UniProt P10275: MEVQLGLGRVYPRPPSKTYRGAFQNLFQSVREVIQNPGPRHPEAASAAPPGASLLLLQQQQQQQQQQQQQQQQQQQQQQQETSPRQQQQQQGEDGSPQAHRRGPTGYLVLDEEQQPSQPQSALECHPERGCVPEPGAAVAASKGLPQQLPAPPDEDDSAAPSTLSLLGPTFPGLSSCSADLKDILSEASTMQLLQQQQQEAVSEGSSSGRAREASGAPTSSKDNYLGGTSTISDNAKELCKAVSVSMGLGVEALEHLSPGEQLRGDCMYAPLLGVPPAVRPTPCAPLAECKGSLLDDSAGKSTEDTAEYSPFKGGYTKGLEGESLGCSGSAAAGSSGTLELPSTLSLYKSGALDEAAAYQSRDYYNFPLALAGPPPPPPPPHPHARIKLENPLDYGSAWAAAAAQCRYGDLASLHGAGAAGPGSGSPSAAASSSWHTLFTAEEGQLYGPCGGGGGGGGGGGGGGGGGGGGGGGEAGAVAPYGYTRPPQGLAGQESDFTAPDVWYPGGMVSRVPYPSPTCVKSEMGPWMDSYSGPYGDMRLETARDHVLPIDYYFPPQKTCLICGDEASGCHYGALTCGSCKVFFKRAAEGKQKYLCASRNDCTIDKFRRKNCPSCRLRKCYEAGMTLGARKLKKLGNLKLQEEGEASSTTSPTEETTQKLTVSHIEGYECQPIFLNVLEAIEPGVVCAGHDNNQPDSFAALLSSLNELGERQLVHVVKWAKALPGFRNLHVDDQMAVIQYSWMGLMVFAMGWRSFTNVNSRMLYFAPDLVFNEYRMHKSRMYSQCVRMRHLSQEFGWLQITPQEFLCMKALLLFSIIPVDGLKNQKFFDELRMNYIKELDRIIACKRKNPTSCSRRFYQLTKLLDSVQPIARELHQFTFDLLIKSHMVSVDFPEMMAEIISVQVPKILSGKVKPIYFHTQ
# UniProt P07727: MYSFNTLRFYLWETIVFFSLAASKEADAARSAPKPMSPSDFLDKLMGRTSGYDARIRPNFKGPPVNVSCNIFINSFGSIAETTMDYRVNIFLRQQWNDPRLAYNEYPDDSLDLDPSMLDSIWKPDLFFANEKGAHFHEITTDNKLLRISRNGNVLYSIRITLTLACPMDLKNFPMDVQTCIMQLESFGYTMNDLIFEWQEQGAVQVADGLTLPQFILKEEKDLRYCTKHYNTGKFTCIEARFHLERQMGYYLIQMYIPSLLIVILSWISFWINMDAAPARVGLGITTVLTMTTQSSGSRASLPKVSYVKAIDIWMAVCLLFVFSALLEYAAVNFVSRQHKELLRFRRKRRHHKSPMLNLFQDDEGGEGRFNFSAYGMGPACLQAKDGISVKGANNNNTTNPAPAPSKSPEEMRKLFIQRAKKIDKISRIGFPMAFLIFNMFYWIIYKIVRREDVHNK
# UniProt P20813: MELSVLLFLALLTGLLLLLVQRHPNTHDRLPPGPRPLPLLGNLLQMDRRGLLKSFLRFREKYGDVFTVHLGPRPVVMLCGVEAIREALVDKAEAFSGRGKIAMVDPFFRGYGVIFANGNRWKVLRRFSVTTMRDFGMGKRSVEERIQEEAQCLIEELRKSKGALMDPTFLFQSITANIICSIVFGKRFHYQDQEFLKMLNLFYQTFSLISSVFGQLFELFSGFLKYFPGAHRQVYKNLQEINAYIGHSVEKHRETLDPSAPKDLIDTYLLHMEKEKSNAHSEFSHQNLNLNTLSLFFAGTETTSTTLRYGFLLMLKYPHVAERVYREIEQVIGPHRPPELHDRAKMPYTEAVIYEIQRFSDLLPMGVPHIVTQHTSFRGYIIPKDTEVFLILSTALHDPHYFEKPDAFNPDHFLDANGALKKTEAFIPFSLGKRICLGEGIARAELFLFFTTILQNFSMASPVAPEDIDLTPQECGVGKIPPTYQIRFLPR
# UniProt P33261, whole entry, looked up: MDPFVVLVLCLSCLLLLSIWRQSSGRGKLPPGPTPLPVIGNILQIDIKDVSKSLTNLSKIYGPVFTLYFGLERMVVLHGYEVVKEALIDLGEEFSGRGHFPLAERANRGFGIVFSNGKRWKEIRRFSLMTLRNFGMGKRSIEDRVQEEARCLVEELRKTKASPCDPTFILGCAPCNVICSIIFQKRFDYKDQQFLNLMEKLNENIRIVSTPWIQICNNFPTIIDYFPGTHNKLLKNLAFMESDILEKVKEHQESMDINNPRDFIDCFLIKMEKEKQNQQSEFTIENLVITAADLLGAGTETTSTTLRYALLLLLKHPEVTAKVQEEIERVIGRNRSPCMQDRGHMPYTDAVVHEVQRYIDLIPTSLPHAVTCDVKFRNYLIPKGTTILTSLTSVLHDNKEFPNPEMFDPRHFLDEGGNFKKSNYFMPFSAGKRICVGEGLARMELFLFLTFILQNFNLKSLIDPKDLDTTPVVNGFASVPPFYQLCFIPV
# UniProt P08684, whole entry, looked up: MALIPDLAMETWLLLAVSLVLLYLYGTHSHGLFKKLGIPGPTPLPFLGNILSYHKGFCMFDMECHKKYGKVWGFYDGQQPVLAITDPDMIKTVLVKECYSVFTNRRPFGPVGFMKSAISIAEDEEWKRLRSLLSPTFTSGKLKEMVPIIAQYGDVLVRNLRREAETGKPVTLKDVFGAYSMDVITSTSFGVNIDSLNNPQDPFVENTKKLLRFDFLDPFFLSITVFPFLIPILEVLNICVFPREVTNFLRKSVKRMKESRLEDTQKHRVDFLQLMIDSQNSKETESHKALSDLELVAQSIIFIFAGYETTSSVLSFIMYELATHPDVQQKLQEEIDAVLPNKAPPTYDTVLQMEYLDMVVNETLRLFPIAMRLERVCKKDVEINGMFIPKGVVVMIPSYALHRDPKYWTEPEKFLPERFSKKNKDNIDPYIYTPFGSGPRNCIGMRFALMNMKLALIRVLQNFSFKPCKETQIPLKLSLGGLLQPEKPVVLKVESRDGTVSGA
# Inconclusive means that the source gave no clear call. Such entries were picked first, then a sample of the others. For some assays here: Potencies of inconclusive entries are doubtful fits and often do not repeat. The source made the active and inactive calls. How the source made its calls: active means hit-call score of the fitted dose curve at least 0.9, where 1 is the maximum; inconclusive means response in the unintended direction; inactive means score below 0.9.
# What was measured:
# [1] = target: rat Adrenergic, Alpha 1, Non-selective Receptor (Adra1), Adra1a (gene 29412) (UniProt P43140); assay: NVS_GPCR_rAdra1_NonSelective: NovaScreen (NVS) G Protein-Coupled Receptor Assay for rat Adrenergic, Alpha 1, Non-selective Receptor (Adra1) (AID 2283289)
# Outline: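 Rat forebrain membranes; radioligand displacement read by filter-based scintillation counting 1 h after dosing. Primary screen in duplicate at 25 uM; hits (e.g. ≥30% inhibition) rerun as concentration–response to 50 uM max. Fitted versus DMSO.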
# [2] = target: rat Neurokinin-3 Receptor (NK3), Tacr3 (gene 24808) (UniProt P16177); assay: NVS_GPCR_rNK3: NovaScreen (NVS) G Protein-Coupled Receptor Assay for rat Neurokinin-3 Receptor (NK3) (AID 2283310)
# Outline: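 Rat cortical membranes; radioligand binding with filtration and scintillation counting, 2 h after dosing. Primary screen in duplicate at 25 uM, then concentration-response up to 50 uM; loss of binding signal relative to DMSO.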
# [3] = target: rat Vasopressin 1 Receptor (V1), Avpr1a (gene 25107) (UniProt P30560); assay: NVS_GPCR_rV1: NovaScreen (NVS) G Protein-Coupled Receptor Assay for rat Vasopressin 1 Receptor (V1) (AID 2283316)
# Outline: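 Radioligand binding on rat liver membranes, 1.5 h incubation, filter-based scintillation counting. Single 25 uM screen in duplicate; chemicals meeting threshold (e.g. 30% inhibition) run in concentration-response up to 50 uM.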
# [4] = tested on: rat Norepinephrine Transporter (NET), gene 83511; assay: NVS_TR_rNET: NovaScreen (NVS) Transporter Assay for rat Norepinephrine Transporter (NET) (AID 2283373)
# Outline: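 Rat forebrain membranes; radioligand binding measured by filter-based scintillation counting 1 hour after dosing. Loss of specific binding versus DMSO baseline scored; primary screen in duplicate at 25 uM, actives followed up in concentration series.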
# [5] = target: bovine Gamma-Aminobutyric Acid Type A Receptor BDZ, alpha 5 site (GABARa5), GABRA5 (gene 523515) (UniProt Q08E50); assay: NVS_LGIC_bGABARa5: NovaScreen (NVS) Ligand-Gated Ion Channel Assay for bovine Gamma-Aminobutyric Acid Type A Receptor BDZ, alpha 5 site (GABARa5) (AID 2283323)
# Outline: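 Radioligand competitive displacement binding on bovine hippocampal membranes, read 1 hr after dosing by filter-based scintillation counting. Primary screen at 25 uM in duplicate; actives (e.g. ≥30% inhibition) then run in concentration-response up to 50 uM.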
# [6] = target: rat Neonicotinoid receptor (NNR), Chrna7 (gene 25302) (UniProt Q05941); assay: NVS_LGIC_rNNR_BungSens: NovaScreen (NVS) Ligand-Gated Ion Channel Assay for rat Neonicotinoid receptor (NNR) (AID 2283315)
# Outline: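 Radioligand displacement binding on rat cortical membranes, 2.5 h incubation, filtration and scintillation counting. Loss of specific binding fitted relative to DMSO.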
# [7] = target: Tyrosine-protein phosphatase non-receptor type 11 (Homo sapiens) (UniProt Q06124); assay: NVS_ENZ_hPTPN11: NovaScreen (NVS) Enzymatic Assay for human Protein Tyrosine Phosphatase Non-receptor Type 11 (PTPN11) (AID 2283202)
# Outline: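 Recombinant human PTPN11 activity on a fluorescent substrate, with substrate/product separated by electrophoretic mobility shift; read 0.5 h after dosing, loss of signal vs DMSO. Duplicate 25 uM screen, then concentration-response up to 50 uM.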
# [8] = target: human Protein Tyrosine Phosphatase Non-receptor Type 9 (PTPN9), PTPN9 (gene 5780) (UniProt P43378); assay: NVS_ENZ_hPTPN9: NovaScreen (NVS) Enzymatic Assay for human Protein Tyrosine Phosphatase Non-receptor Type 9 (PTPN9) (AID 2283209)
# Outline: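 Sf9-expressed enzyme in a cell-free assay, fluorescence read 1.33 h after dosing with mobility-shift separation of substrate and product. Tested at 25 uM in duplicate, then up to 50 uM; signal loss versus DMSO.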
# [9] = LTEA_HepaRG_LDH_cytotoxicity: Cytotoxicity Assessment in the Life Technologies and Expression Analysis (LTEA) Assay (AID 2283563)
# Outline: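 HepaRG (human liver line), 48 h exposure, 8-pt half-log series from 100 uM, 0.5% DMSO vehicle, duplicates. Read-out: LDH in spent medium. Positive-direction fit vs DMSO baseline.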
# [10] = target: human Esterase Plasma (ES), BCHE (gene 590) (UniProt P06276); assay: NVS_ENZ_hES: NovaScreen (NVS) Enzymatic Assay for human Esterase Plasma (ES) (AID 2283157)
# Outline: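 Cell-free enzyme assay using esterase extracted from human plasma; colorimetric absorbance read 0.25 hour after dosing. Single-concentration duplicate screen at 25 uM, then concentration-response up to 50 uM; loss of signal scored against DMSO baseline.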
# [11] = target: human Androgen Receptor (AR), AR (gene 367) (UniProt P10275); assay: NVS_NR_hAR: NovaScreen (NVS) Nuclear Receptor Binding Assay for human Androgen Receptor (AR) (AID 2283332)
# Outline: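 Actives from a duplicate 25 uM single-point screen went on to concentration series. Read-out after 20 h was scintillation counting of displaced radioligand in LnCAP extract, with DMSO as baseline.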
# [12] = target: rat Glycine Receptor, Strychnine-sensitive (GlyRStrySens), Glra1 (gene 25674) (UniProt P07727); assay: NVS_LGIC_rGlyRStrySens: NovaScreen (NVS) Ligand-Gated Ion Channel Assay for rat Glycine Receptor, Strychnine-sensitive (GlyRStrySens) (AID 2283341)
# Outline: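 Radioligand displacement on rat spinal cord membranes, 1 hr, filter scintillation read-out. Single-concentration duplicate screen at 25 uM; chemicals meeting threshold (e.g., 30% inhibition) rerun in concentration-response up to 50 uM. Loss of binding fitted versus DMSO.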
# [13] = read-out: xenobiotic metabolism (CYP1A2), CYP1A2 (gene 1544); assay: CLD_CYP1A2_6hr: CellzDirect (CLD) Gene Expression Assay for xenobiotic metabolism (CYP1A2) at 6 hours (AID 2283663)
# Outline: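 Primary human hepatocytes from two donor preparations, dosed daily with multiple concentrations in 0.2% DMSO and harvested at 6 h. CYP1A2 mRNA induction measured by chemiluminescent qNPA, gain of signal fitted against DMSO; cytotoxicity flagged morphologically.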
# [14] = read-out: organic anion transporter (SLCO1B1), SLCO1B1 (gene 10599); assay: CLD_SLCO1B1_6hr: CellzDirect (CLD) Gene Expression Assay for organic anion transporter (SLCO1B1) at 6 hours (AID 2283668);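 further: active means mRNA induction above DMSO baseline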
# Outline: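 Primary human hepatocytes dosed daily with test chemicals (multiple concentrations) in 0.2% DMSO vehicle; harvested at 6 h. SLCO1B1 mRNA quantified by qNPA chemiluminescence, fitted as gain-of-signal versus DMSO; cytotoxicity from phase-contrast morphology flagged alongside.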
# [15] = read-out: Cytochrome P450 2B6 (Homo sapiens) (UniProt P20813); assay: CLD_CYP2B6_6hr: CellzDirect (CLD) Gene Expression Assay for xenobiotic metabolism (CYP2B6) at 6 hours (AID 2283677);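 further: actives raise CYP2B6 transcript above DMSO baseline so AC50 marks an inducer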
# Outline: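 Primary human hepatocytes dosed with chemicals at multiple concentrations, vehicle 0.2% DMSO; CYP2B6 mRNA induction measured 6 h after dosing by quantitative nuclease protection assay with chemiluminescence, gain of signal fitted relative to DMSO.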
# [16] = read-out: Cytochrome P450 2C19 (Homo sapiens) (UniProt P33261); assay: CLD_CYP2C19_6hr: CellzDirect (CLD) Gene Expression Assay for xenobiotic metabolism (CYP2C19) at 6 hours (AID 2283678)
# Outline: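 Primary human hepatocytes from two donor preparations were dosed daily, with 0.2% DMSO as vehicle, and harvested 6 h after dosing. CYP2C19 mRNA induction was measured by qNPA chemiluminescence and fitted as gain of signal against DMSO.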
# [17] = read-out: ABC Transporter (ABCB1), ABCB1 (gene 5243); assay: CLD_ABCB1_24hr: CellzDirect (CLD) Gene Expression Assay for ABC Transporter (ABCB1) at 24 hours (AID 2283684);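 further: potency for increase in ABCB1 mRNA relative to DMSO vehicle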
# Outline: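 Primary human hepatocytes, two donor preparations, dosed daily with fresh solutions; vehicle 0.2% DMSO; harvested at 24 h. ABCB1 mRNA measured by quantitative nuclease protection assay (chemiluminescence); morphology-based cytotoxicity annotated.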
# [18] = read-out: Cytochrome P450 2B6 (Homo sapiens) (UniProt P20813); assay: CLD_CYP2B6_24hr: CellzDirect (CLD) Gene Expression Assay for xenobiotic metabolism (CYP2B6) at 24 hours (AID 2283686)
# Outline: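 Primary human hepatocytes dosed daily for two days with fresh solutions, harvested at 24 hours; mRNA induction quantified by qNPA chemiluminescence, gain of signal vs 0.2% DMSO vehicle. Cytotoxicity annotated from phase-contrast morphology.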
# [19] = read-out: Cytochrome P450 3A4 (Homo sapiens) (UniProt P08684); assay: CLD_CYP3A4_24hr: CellzDirect (CLD) Gene Expression Assay for xenobiotic metabolism (CYP3A4) at 24 hours (AID 2283689)
# Outline: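 Primary human hepatocytes from two donors dosed daily with fresh compound for two days, 0.2% DMSO vehicle. CYP3A4 mRNA at 24 hr by qNPA chemiluminescence; gain-of-signal fit versus DMSO, cytotoxicity flagged by morphology.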
# [20] = read-out: ABC Transporter (ABCB1), ABCB1 (gene 5243); assay: CLD_ABCB1_48hr: CellzDirect (CLD) Gene Expression Assay for ABC Transporter (ABCB1) at 48 hours (AID 2283695);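 further: potency for induction meaning increase of mRNA over DMSO vehicle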
# Outline: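 Primary human hepatocytes from two donor preparations dosed daily on two consecutive days with 0.2% DMSO vehicle. Harvest at 48 h. ABCB1 mRNA quantified by qNPA with chemiluminescence and fitted for gain of signal versus DMSO.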
compound,measurement,setting,value
Cc1cc(SC2=C(O)C[C@@](CCc3ccc(N)cc3)(C(C)C)OC2=O)c(C(C)(C)C)cc1CO,AC50,[1],inconclusive: 9.33 µM
same,AC50,[2],inconclusive: 48 µM
same,AC50,[3],inconclusive: 25 µM
same,AC50,[4],inconclusive: 25 µM
CCCCCCCCCC(=O)O,AC50,[5],inconclusive: 26.1 µM
C=Cc1ccncc1,AC50,[6],inconclusive: 25 µM
OCCOCCOCCO,outcome,[7],inactive
same,AC50,[8],inconclusive: 0.125 µM
same,outcome,[9],inactive
CCOC(=O)[C@H](C)Oc1ccc(Oc2nc3ccc(Cl)cc3o2)cc1,AC50,[10],inconclusive: 6.71 µM
same,AC50,[11],inconclusive: 25 µM
same,AC50,[12],inconclusive: 4.02 µM
same,outcome,[13],inactive
same,outcome,[14],inactive
same,AC50,[15],inconclusive: 20 µM
same,AC50,[16],inconclusive: 20 µM
same,AC50,[17],inconclusive: 0.0756 µM
same,AC50,[18],inconclusive: 20 µM
same,AC50,[19],inconclusive: 20 µM
same,AC50,[20],inconclusive: 0.0549 µM

# Taken from the entries so far (two entries):
compound,measurement,setting,value
CCOC(=O)[C@H](C)Oc1ccc(Oc2nc3ccc(Cl)cc3o2)cc1,AC50,[11],inconclusive: 25 µM
same,AC50,[12],inconclusive: 4.02 µM
